Data set [1] has as its target T1, DEK WT (human) (UniProt P35659).
T1 sequence (looked up): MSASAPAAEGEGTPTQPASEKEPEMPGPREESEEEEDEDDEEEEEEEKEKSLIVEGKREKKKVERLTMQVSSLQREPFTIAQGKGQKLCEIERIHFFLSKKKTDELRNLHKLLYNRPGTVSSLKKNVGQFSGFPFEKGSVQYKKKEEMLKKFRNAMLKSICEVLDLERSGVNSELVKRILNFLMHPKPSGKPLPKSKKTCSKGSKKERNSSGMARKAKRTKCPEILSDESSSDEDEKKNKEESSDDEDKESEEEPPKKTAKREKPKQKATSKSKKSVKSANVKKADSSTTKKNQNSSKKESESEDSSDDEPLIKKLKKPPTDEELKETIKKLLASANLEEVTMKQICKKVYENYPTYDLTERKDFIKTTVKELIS
As to the kind of experiment: EMSA. Particulars: 14 mM Tris-HCl pH 7.5, 75 mM NaCl, 0.7 mM DTT, 6% glycerol, 0.25 mM EDTA, 0.05 mM PMSF, 0.001% polyglutamic acid, 0.1 mg/ml BSA, 0.1 uM nucleosome, 37 C 30 min; recombinant protein; residues 1-375; protein details: His6-SUMO removed by HRV 3C. On the technique in general: Mobility shift assays separate free from complexed probe on a gel.

For data set [2], the target named is T1, DEK WT (human). As to the kind of experiment: competition with a labelled probe. The following applies: nucleosome and naked DNA together, nucleosome preferred; 14 mM Tris-HCl pH 7.5, 75 mM NaCl, 0.7 mM DTT, 6% glycerol, 0.25 mM EDTA, 0.05 mM PMSF, 0.001% polyglutamic acid, 0.1 mg/ml BSA, 0.1 uM nucleosome, 37 C 30 min; recombinant protein; residues 1-375; protein details: His6-SUMO removed by HRV 3C.

The source of these data is paper PMC12263440.

Weaker means in comparison with the reference protein, sequence or condition of that experiment. Protein sequences can lack the tags named with them. For some assays here: For at least one entry, the source does not settle the construct or the ends of the probe.

As for “ATCACGTAATATTGGCCAGCTAGGATCACAATCCCGGTGCCGAGGCCGCTCAATTGGTCGTAGACAGCTCTAGCACCGCTTAAACGCACGTACGGAATCCGTACGTGCGTTTAAGCGGTGCTAGAGCTGTCTACGACCAATTGAGCGGCCTCGGCACCGGGATTGTGATCCTAGCTGGCCAATATTACGTGAT (double strand) [193-bp naked DNA (Widom 601L)]”, the binding result with DEK WT (human) [1] and with DEK WT (human) [2] was “binds more weakly” in each case.
